This is one part of the list.

The target of the assay is T1, OsSMF1 (Oryza sativa, UniProt Q6ZLB0 1-436).
T1 sequence: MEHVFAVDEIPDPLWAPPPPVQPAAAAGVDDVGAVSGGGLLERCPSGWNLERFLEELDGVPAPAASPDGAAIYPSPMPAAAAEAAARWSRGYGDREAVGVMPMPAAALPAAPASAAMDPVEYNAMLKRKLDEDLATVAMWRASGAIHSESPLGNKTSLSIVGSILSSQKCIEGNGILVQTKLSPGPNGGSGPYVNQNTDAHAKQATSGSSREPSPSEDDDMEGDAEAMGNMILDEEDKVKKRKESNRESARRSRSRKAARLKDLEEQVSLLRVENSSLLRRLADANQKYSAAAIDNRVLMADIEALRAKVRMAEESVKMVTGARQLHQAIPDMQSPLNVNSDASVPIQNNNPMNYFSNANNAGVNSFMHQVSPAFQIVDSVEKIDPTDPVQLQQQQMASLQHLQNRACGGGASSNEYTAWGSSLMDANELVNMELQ
The experiment in a line: protein-binding microarray (RPBM); PBS, 2% BSA, 51.3 ng/ul salmon testes DNA, 50 uM zinc acetate, 200 nM TF, 25 C, 1 h; high values mean tight binding. The note with it: protein: recombinant; tags: N-terminal polyhistidine and DsRed monomer fusion (pET32a); chain copies: 2; label: CyDye5-dUTP incorporated in the synthesized complementary strand; 3' TTTTT single-stranded linker to array surface; dsDNA, one strand shown. In short, it runs like this: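 Binding signal here means per-feature fluorescence intensity in arbitrary units. The values were read on an Axon 4000B scanner after a custom Agilent array, double-stranded by primer extension with Cy5-dUTP, was incubated with 200 nM protein at 25 °C for 1 h in PBS with 2% BSA, salmon testes DNA and 50 µM zinc acetate, then washed. The proteins were transcription factors with an N-terminal polyhistidine tag and DsRed, expressed in E. coli BL21-CodonPlus and purified on Ni–NTA.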
On to “TATTTCAGACTTGATGGGTCATCGGCAATATCTGATCGACCGGAGTCACCTAGTGCAG”, for which the binding signal was 3820 fluorescence intensity (a.u.).
“GAGACGTGACGTGACGTTATCTCTCTCTCTCTCTCTCTCTCGGAGTCACCTAGTGCAG”: the binding signal was 13500 fluorescence intensity (a.u.).
“CTACTATACGTCGATGGGGAGGGAGGGAGGGTGGCTGTAGCGGAGTCACCTAGTGCAG”: the binding signal is 3160 fluorescence intensity (a.u.).
Consider “CCGAAGCGAGAAAGAGCTCGAGAGGGAGAGATCGATCGGCCGGAGTCACCTAGTGCAG”, for which the binding signal was 3180 fluorescence intensity (a.u.).
The figure for “ACTAATAATAAATAAAACTTAATTAGGCCCACAATTAGAACGGAGTCACCTAGTGCAG” is 36900 fluorescence intensity (a.u.); for “TGGACTGTAGTAGTGTGGATGCTTACGTCGTAGTGGTGGACGGAGTCACCTAGTGCAG” it is 3750 fluorescence intensity (a.u.); for “CCAACATATATGGGCCACACGTAAGTACCAATCCCGTTATCGGAGTCACCTAGTGCAG” it is 5850 fluorescence intensity (a.u.).
The figure for “CGCGTGGCTGCGCAGCTGAGGTTTGACTAGGGTTTTGCTACGGAGTCACCTAGTGCAG” is 3550 fluorescence intensity (a.u.); for “CACTGGGCTTCGATTGGGCTATAAGACCAATACTAGTTGCCGGAGTCACCTAGTGCAG” it is 3190 fluorescence intensity (a.u.).
In the case of “CAAACTCCAAACGCACTTGACTTCCTCCTCGTCATCGCTGCGGAGTCACCTAGTGCAG” it was 5610 fluorescence intensity (a.u.).
Turning to “CGGGAACACCACTGGCCGCCGGCGTCACCGCCTCCTCGCCCGGAGTCACCTAGTGCAG”, the binding signal was 3140 fluorescence intensity (a.u.).
As to “TTCTCCGTGTTAATATCACTTACGTCAAGGACCTATTTGTCGGAGTCACCTAGTGCAG”, the binding signal is 4620 fluorescence intensity (a.u.).
“GCACTCACCTCTATGAGCGTATACACACAGATAGGTACATCGGAGTCACCTAGTGCAG”: the binding signal is 33600 fluorescence intensity (a.u.).
On to “GACGACTGAAAACTTGAGCAGTCACAATATTGCTGTCCGACGGAGTCACCTAGTGCAG”, for which the binding signal was 3340 fluorescence intensity (a.u.).
Consider “ACCACACTACGTGCGCCACGTACATCATCCCGTGCCATGTCGGAGTCACCTAGTGCAG”, for which the binding signal was 13400 fluorescence intensity (a.u.).
In the case of “AATGTGCGCCTGTGCGAGTGCGACGAATGTACCTAACAGTCGGAGTCACCTAGTGCAG” it was 3180 fluorescence intensity (a.u.); in that of “CACCGAGGAAATGCTGACCTCGACGTTTGGCCTGTGAATACGGAGTCACCTAGTGCAG”, 3240 fluorescence intensity (a.u.); in that of “ACCAAAATTTAAAATTTCAACCTTAAATTCAGAGTTGATTCGGAGTCACCTAGTGCAG”, 20900 fluorescence intensity (a.u.).
The figure for “GCGCTGTCCCCGTCATGCGTGTTGGTGGTATAGTACTAGTCGGAGTCACCTAGTGCAG” is 5560 fluorescence intensity (a.u.).
In the case of “TACATTATTAAATAACTAATCTACTCATCTCTTTCACATGCGGAGTCACCTAGTGCAG” it was 4340 fluorescence intensity (a.u.); in that of “CCAGCCTCGCCACCTCGCCCATGCTTATCGCTCTCTTCCCCGGAGTCACCTAGTGCAG”, 3410 fluorescence intensity (a.u.).
Consider “TGGTCTAAACGACACGAAACTCTGTCATTATTCTCTGGAACGGAGTCACCTAGTGCAG”, for which the binding signal was 3600 fluorescence intensity (a.u.).
On to “GAACCTGTCTCCCGAACTCGGGAAATTTAACTATTTGCCACGGAGTCACCTAGTGCAG”, for which the binding signal is 3930 fluorescence intensity (a.u.).
The figure for “TAGTCCTTCAGTTTCAGTCCCCTCGCATCGCCATAACCACCGGAGTCACCTAGTGCAG” is 5620 fluorescence intensity (a.u.); for “GGCCGCGTGTGGCCGCCGGACCAGTTCGCGTCCTGTGCCTCGGAGTCACCTAGTGCAG” it is 11700 fluorescence intensity (a.u.); for “ATGGGCCTAAATAGTAGCTGCCATGTGGACTTTTATGATGCGGAGTCACCTAGTGCAG” it is 4890 fluorescence intensity (a.u.).
Take “AAAGAAGGAGATGATATAAGGGGTAGCAACTGGTGTGACTCGGAGTCACCTAGTGCAG”: the binding signal is 3140 fluorescence intensity (a.u.).
The figure for “AACCCGCGATCTGACCGGTCTGTGACCGGTCACACACTGCCGGAGTCACCTAGTGCAG” is 3800 fluorescence intensity (a.u.); for “CATAGTTGACTTCCAAGGCAAGACAGATGAGATATGCATTCGGAGTCACCTAGTGCAG” it is 45500 fluorescence intensity (a.u.).
The figure for “AACGGTTAAATGTTGGACATTAATGGTGTAAAATAATACTCGGAGTCACCTAGTGCAG” is 4300 fluorescence intensity (a.u.); for “ACAATTTCATTTGTTGCCACGTTGCGTACTGAACAGTGCACGGAGTCACCTAGTGCAG” it is 7790 fluorescence intensity (a.u.); for “TATTTTGGAAAATGAGTCACAGGGTTATTGTAGCTTTGAACGGAGTCACCTAGTGCAG” it is 9390 fluorescence intensity (a.u.).
The figure for “AAGCATTGTGACAGTGTGAGTGGTACCCGTCAAATGTCATCGGAGTCACCTAGTGCAG” is 3630 fluorescence intensity (a.u.); for “CGCGACGGTGGACGCGGCCATCGCCGTCGACCAGTGCAGGCGGAGTCACCTAGTGCAG” it is 3380 fluorescence intensity (a.u.); for “AAACCGGACCAATCTACGTCACTCACCTACTACCACAAGACGGAGTCACCTAGTGCAG” it is 4260 fluorescence intensity (a.u.).
For “TCTGAAAAGGAAAGGGAGGAGAGAGAAAGGCAAAGAGGAGCGGAGTCACCTAGTGCAG”, the binding signal is 26000 fluorescence intensity (a.u.).
The figure for “TGGTGCGGAGATCGGATGCGTCACCTTGCTTCGGTTGCGCCGGAGTCACCTAGTGCAG” is 5080 fluorescence intensity (a.u.); for “AAAATATTATTTTCCCTGAGTCATCTTATACTTGAATTTGCGGAGTCACCTAGTGCAG” it is 4530 fluorescence intensity (a.u.).
In the case of “GTTGCGCCGCTGTGCTGGTCAAAGCTGGCGGTGTACGATGCGGAGTCACCTAGTGCAG” it was 3640 fluorescence intensity (a.u.); in that of “CGTCGCCTCCACGGAGGAGAGCCCCGTCACGCCGCTCCGCCGGAGTCACCTAGTGCAG”, 5910 fluorescence intensity (a.u.).
The figure for “GGATGTGATGACTGTTTGTCTGTTTGGCTGATATCTCCACCGGAGTCACCTAGTGCAG” is 7420 fluorescence intensity (a.u.); for “CCTCTCTCATCAGCACACACTGTCACCACAACAGCCACCACGGAGTCACCTAGTGCAG” it is 3830 fluorescence intensity (a.u.).
Regarding “AAGCAAATCTCTAGATAGATAGATAGATGGATGGATGGATCGGAGTCACCTAGTGCAG”, the binding signal is 33800 fluorescence intensity (a.u.).
For the sequence “GTCGGATTAGTGATTATGCTAATCAATGCCACGTAGGATCCGGAGTCACCTAGTGCAG”, the binding signal is 27000 fluorescence intensity (a.u.).
For “ACTGCGACGTACACACGTGGCAAGTGCATTTCCTCCCGATCGGAGTCACCTAGTGCAG”, the binding signal was 10800 fluorescence intensity (a.u.).
The figure for “GGCAAAATGAGGACGCAGTCTATCGAGACGGTGACACTGCCGGAGTCACCTAGTGCAG” is 3490 fluorescence intensity (a.u.); for “AACCTCATCCCAGCTGACGTTCACCCGACGCCGCCCGTCGCGGAGTCACCTAGTGCAG” it is 5120 fluorescence intensity (a.u.); for “CCTCTGCCATCATCGTCGTCATCCCATCCGGATTGCCACCCGGAGTCACCTAGTGCAG” it is 5630 fluorescence intensity (a.u.).
The figure for “CAAAATCTTCTGTGACTCATTGCATGATGCATTTAACTAGCGGAGTCACCTAGTGCAG” is 5780 fluorescence intensity (a.u.); for “GTCCGATCTGTCGCAAGGCTTACTCATCGGACGGCCGAGACGGAGTCACCTAGTGCAG” it is 3190 fluorescence intensity (a.u.).
In the case of “CGAAGAAACAATAGCTCATCGGATCTAATTCTGATCATATCGGAGTCACCTAGTGCAG”, the binding signal was 24400 fluorescence intensity (a.u.).
On to “TGTATCTGTACTATACCTCTGTACGCTGCCATGTGAACTACGGAGTCACCTAGTGCAG”, for which the binding signal is 3470 fluorescence intensity (a.u.).
As for “ACTCGTGACAAAGCAGACACGTGCTCAATGCGTAACAAGACGGAGTCACCTAGTGCAG”, the binding signal is 5160 fluorescence intensity (a.u.).
The figure for “CCTTTGCCACCTTCTCTAATAAAGTAATATGTGTGTCATACGGAGTCACCTAGTGCAG” is 3920 fluorescence intensity (a.u.).

These data come from publication PMC7819943, “Rice protein-binding microarrays: a tool to detect cis-acting elements near promoter regions in rice”.
